# ± gives the standard deviation of the averaged measurements. The list shows a part of the results.
# Chains of the proteins cited; added tags and fusions are not shown. Lines headed by an entry give the natural chain unless they say otherwise; changes in a name come on top.
# UniProt O75323: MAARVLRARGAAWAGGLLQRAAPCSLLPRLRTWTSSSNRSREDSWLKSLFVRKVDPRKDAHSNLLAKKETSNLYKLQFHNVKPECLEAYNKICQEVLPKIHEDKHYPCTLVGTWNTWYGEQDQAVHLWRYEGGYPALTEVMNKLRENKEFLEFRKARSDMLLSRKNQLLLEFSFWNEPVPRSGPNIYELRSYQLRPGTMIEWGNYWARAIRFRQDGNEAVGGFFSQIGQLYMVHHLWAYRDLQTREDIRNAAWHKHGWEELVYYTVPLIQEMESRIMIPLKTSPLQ
# UniProt P04035: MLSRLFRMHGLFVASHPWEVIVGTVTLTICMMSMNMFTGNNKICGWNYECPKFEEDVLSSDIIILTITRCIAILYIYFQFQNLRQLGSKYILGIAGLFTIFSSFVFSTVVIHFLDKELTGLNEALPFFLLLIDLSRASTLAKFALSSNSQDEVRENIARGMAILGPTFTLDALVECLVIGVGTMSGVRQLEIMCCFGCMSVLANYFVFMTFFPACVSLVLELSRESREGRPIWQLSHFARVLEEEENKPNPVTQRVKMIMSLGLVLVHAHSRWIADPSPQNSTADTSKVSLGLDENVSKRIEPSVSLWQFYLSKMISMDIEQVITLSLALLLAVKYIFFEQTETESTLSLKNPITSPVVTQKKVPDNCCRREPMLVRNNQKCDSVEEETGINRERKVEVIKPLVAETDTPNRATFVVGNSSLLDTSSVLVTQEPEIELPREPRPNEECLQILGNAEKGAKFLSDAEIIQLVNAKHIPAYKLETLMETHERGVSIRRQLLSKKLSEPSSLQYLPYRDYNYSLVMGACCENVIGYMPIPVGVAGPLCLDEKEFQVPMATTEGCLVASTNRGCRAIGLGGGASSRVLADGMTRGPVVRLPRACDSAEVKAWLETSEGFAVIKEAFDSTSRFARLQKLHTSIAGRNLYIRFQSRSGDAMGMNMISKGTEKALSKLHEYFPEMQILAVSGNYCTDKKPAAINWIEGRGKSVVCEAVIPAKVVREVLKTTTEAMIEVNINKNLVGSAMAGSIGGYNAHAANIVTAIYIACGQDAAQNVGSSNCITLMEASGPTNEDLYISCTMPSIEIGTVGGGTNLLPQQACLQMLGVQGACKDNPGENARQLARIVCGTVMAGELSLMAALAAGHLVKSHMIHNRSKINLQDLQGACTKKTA
# UniProt O95825: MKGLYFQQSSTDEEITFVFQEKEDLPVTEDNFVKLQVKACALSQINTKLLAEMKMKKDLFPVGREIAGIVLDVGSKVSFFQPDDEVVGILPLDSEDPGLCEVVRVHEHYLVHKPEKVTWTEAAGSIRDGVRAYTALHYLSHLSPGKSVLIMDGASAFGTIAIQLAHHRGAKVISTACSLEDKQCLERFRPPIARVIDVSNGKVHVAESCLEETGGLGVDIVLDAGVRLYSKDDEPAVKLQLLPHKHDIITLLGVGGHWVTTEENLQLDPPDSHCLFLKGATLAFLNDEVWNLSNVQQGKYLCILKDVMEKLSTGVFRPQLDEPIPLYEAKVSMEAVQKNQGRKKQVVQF
# UniProt P04040: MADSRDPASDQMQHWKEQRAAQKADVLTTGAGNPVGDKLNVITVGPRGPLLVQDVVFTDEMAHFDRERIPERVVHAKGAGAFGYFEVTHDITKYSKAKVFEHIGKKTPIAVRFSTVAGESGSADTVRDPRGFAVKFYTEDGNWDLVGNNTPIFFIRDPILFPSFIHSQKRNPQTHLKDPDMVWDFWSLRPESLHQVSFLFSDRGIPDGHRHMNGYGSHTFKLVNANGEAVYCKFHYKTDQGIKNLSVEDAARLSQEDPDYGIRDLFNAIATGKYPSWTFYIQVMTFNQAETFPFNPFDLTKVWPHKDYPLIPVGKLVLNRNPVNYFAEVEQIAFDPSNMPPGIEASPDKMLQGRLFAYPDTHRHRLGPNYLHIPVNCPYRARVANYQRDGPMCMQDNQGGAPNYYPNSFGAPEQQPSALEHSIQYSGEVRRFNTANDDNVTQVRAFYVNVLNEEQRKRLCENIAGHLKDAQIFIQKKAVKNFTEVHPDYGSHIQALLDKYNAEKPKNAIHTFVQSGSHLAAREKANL
# UniProt O75695: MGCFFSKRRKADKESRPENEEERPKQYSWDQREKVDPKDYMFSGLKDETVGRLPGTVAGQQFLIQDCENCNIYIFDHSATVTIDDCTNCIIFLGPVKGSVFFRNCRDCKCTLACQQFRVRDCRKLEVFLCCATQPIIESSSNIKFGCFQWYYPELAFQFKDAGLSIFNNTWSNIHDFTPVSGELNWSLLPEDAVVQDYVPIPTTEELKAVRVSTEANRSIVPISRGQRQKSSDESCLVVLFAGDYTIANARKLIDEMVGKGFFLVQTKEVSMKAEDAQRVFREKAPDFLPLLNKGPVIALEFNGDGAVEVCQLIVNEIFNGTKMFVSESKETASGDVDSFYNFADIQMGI
# UniProt O75607: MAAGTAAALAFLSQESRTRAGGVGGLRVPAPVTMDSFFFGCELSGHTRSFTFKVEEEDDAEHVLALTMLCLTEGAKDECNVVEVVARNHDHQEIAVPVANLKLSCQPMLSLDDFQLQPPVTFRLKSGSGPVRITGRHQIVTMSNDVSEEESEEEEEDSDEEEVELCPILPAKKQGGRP
# UniProt P05165: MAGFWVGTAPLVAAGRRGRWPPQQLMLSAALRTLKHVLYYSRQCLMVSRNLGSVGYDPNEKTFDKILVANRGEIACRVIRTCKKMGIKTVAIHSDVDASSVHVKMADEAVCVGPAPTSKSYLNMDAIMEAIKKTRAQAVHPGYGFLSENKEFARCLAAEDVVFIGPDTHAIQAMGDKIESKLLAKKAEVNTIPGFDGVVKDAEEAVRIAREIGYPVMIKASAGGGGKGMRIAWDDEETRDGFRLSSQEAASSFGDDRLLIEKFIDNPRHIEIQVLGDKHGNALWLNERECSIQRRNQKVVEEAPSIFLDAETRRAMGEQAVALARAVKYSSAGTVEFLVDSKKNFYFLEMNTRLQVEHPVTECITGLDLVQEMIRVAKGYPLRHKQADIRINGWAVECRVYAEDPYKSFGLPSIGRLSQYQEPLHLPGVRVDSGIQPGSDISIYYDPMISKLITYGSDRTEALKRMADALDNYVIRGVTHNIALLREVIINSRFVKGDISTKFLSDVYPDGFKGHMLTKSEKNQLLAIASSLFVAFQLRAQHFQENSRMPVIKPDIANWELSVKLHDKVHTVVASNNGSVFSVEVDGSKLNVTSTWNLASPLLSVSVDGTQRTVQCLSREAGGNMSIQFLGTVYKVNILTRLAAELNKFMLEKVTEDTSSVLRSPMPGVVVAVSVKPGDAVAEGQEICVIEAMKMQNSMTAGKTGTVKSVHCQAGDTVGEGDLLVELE
# UniProt P00966: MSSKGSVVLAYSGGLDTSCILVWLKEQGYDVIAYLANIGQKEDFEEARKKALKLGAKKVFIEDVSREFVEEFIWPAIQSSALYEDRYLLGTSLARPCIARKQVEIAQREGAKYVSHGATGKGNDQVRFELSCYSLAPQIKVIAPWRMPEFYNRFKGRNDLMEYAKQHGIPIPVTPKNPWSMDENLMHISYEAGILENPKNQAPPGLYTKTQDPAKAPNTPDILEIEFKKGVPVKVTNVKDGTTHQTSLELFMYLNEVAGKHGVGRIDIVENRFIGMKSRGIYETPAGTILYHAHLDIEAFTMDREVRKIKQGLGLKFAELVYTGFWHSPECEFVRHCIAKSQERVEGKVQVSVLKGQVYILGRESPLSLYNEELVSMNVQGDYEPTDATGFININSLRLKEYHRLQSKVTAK
# UniProt O94768: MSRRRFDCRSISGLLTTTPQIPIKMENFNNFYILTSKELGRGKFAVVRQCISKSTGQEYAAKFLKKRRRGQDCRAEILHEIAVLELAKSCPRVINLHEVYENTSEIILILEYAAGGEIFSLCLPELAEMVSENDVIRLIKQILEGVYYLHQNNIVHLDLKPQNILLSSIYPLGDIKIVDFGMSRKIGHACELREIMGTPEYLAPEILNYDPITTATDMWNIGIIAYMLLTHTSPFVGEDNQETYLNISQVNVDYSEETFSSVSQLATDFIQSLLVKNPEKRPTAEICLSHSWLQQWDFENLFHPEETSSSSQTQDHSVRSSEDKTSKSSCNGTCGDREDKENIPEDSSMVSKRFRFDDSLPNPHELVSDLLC
# UniProt O75494: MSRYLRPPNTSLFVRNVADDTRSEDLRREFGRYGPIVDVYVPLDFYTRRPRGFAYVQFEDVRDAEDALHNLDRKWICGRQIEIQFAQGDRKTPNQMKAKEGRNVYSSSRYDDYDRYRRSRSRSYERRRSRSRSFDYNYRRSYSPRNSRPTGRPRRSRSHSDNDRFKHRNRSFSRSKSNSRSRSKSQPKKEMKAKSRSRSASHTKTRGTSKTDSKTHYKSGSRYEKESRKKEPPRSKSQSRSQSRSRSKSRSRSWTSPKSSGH
# UniProt P05387, whole entry: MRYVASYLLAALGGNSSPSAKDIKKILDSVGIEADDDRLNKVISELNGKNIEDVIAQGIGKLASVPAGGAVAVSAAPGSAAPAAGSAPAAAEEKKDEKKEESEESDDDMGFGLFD
# UniProt P00367: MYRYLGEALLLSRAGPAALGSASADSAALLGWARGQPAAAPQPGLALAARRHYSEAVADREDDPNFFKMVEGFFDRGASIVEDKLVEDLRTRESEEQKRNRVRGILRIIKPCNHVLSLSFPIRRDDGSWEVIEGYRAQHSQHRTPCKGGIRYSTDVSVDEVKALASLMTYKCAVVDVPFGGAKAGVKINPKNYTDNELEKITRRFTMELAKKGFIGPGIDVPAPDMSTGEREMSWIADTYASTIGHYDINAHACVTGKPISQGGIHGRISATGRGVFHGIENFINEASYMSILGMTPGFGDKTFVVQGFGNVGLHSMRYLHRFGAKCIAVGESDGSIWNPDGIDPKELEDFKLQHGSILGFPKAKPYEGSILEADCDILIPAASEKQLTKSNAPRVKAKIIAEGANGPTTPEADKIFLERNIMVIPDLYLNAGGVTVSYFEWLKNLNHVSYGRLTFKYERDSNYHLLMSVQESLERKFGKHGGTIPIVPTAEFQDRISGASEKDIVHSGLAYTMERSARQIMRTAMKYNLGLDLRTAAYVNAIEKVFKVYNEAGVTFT
# UniProt O75400: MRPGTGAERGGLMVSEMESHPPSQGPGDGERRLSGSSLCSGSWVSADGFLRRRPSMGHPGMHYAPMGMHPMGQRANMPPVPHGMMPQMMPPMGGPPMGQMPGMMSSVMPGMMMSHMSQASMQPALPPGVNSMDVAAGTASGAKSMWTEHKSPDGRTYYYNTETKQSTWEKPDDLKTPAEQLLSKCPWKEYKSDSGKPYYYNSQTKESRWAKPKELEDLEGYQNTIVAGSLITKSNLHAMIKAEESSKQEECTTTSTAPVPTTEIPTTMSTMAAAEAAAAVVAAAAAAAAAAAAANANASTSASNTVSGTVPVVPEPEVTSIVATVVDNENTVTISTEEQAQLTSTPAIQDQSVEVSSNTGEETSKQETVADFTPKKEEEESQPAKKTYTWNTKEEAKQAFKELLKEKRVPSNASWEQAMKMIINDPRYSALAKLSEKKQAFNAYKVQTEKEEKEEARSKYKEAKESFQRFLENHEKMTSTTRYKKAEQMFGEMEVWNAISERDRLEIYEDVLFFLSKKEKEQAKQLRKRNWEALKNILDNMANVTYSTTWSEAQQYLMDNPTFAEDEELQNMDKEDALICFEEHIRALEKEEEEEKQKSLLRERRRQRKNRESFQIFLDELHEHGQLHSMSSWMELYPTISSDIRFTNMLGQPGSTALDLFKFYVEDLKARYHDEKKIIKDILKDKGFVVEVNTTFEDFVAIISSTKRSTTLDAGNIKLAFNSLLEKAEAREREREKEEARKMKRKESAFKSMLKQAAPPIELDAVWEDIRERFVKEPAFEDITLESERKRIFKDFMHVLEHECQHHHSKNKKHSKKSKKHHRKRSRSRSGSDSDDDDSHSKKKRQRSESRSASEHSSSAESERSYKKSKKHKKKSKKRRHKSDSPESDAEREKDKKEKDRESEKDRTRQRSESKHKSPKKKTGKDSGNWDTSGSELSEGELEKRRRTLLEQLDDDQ
# UniProt O95391: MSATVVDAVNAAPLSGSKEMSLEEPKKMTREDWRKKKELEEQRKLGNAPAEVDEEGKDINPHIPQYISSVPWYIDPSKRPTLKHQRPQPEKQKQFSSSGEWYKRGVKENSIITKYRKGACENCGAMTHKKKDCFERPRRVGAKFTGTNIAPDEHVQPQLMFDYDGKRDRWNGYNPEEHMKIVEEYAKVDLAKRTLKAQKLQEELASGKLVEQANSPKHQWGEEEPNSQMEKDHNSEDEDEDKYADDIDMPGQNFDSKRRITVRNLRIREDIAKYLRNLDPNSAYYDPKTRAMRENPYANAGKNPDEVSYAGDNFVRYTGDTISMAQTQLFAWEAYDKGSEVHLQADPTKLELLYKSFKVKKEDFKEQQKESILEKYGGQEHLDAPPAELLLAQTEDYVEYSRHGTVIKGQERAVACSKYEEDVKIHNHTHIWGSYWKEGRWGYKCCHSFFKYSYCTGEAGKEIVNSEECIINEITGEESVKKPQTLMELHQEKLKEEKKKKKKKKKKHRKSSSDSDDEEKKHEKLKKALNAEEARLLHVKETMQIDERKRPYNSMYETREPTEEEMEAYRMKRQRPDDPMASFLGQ
# Compound: Nc1nc2c(ncn2[C@@H]2O[C@H](COP(=O)(O)OP(=O)(O)OP(=O)(O)O)[C@@H](O)[C@H]2O)c(=O)[nH]1 [guanosine triphosphate]
# Test: NP40-soluble protein abundance relative to vehicle (solubility fold change) (ratio); higher = more soluble protein in presence of GTP
# In short: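 Crude Jurkat lysate, prepared by Dounce homogenisation, was exposed to eight concentrations from 0.1 to 10 mM for 10 min at room temperature and then 3 min at 37 °C. Solubilisation used 0.8% NP40 with benzonase for 60 min at 4 °C, followed by ultracentrifugation and TMT labelling of the supernatant for LC-MS/MS. After vsn normalisation of intensities, each value is the fold change against the detergent-processed vehicle within each replicate, across three independent experiments.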
Target,NP40-soluble protein abundance (concentration: 0.1mM),NP40-soluble protein abundance (concentration: 0.5mM),NP40-soluble protein abundance (concentration: 1mM),NP40-soluble protein abundance (concentration: 2mM),NP40-soluble protein abundance (concentration: 4mM),NP40-soluble protein abundance (concentration: 6mM),NP40-soluble protein abundance (concentration: 8mM),NP40-soluble protein abundance (concentration: 10mM)
UniProt O75376 and related entries,0.993 ± 0.039,1.02 ± 0.05,1.05 ± 0.045,1.08 ± 0.079,1.1 ± 0.11,1.13 ± 0.1,1.17 ± 0.17,1.18 ± 0.17
UniProt O75323,0.994 ± 0.02,1.03 ± 0.037,0.972 ± 0.039,0.943 ± 0.053,0.929 ± 0.074,0.94 ± 0.052,0.943 ± 0.035,0.9 ± 0.066
VAPB (UniProt O95292),0.935 ± 0.067,0.926 ± 0.093,0.944 ± 0.088,0.918 ± 0.11,0.924 ± 0.082,0.913 ± 0.098,0.944 ± 0.086,0.949 ± 0.1
UniProt P04035 and related entries,1.05 ± 0.043,1.06 ± 0.087,0.937 ± 0.15,1.08 ± 0.2,1.03 ± 0.11,1.042 ± 0.0053,1 ± 0.074,0.891 ± 0.11
UniProt P04049 and related entries,1.13 ± 0.13,1.31 ± 0.22,1.28 ± 0.2,1.4 ± 0.28,1.44 ± 0.3,1.38 ± 0.31,1.37 ± 0.29,1.37 ± 0.29
UniProt O95169 and related entries,1.12 ± 0.18,1.02 ± 0.027,1.26 ± 0.2,1.32 ± 0.055,1.22 ± 0.037,1.259 ± 0.0062,1.33 ± 0.24,1.54 ± 0.24
CRYZL1 (UniProt O95825),1.04 ± 0.042,1.02 ± 0.061,0.986 ± 0.039,0.964 ± 0.038,0.964 ± 0.038,0.971 ± 0.032,0.972 ± 0.046,0.925 ± 0.037
CAT (UniProt P04040),1.03 ± 0.016,1.04 ± 0.041,0.978 ± 0.01,0.973 ± 0.023,0.965 ± 0.014,0.941 ± 0.022,0.941 ± 0.022,0.905 ± 0.013
UniProt O75191 and related entries,1.04 ± 0.022,1.01 ± 0.09,0.992 ± 0.074,0.935 ± 0.068,0.94 ± 0.063,0.94 ± 0.067,0.972 ± 0.061,0.906 ± 0.077
BAG2 (UniProt O95816),0.99 ± 0.12,0.965 ± 0.086,1.1 ± 0.19,1.11 ± 0.14,1.16 ± 0.23,1.09 ± 0.17,1.03 ± 0.18,1.07 ± 0.26
RP2 (UniProt O75695),1.04 ± 0.013,1.01 ± 0.011,0.976 ± 0.015,0.958 ± 0.055,0.943 ± 0.084,0.927 ± 0.051,0.925 ± 0.045,0.914 ± 0.091
MTA2 (UniProt O94776),1.04 ± 0.028,1.1 ± 0.059,1.08 ± 0.074,1.11 ± 0.07,1.1 ± 0.09,1.13 ± 0.11,1.14 ± 0.12,1.1 ± 0.092
HMGN2 (UniProt P05204),0.992 ± 0.2,1 ± 0.14,1.31 ± 0.23,1.46 ± 0.35,1.5 ± 0.11,1.89 ± 0.35,1.7 ± 0.41,2.68 ± 0.3
NPM3 (UniProt O75607),1.04 ± 0.13,1.05 ± 0.038,1.08 ± 0.095,1.02 ± 0.065,1.05 ± 0.11,1.08 ± 0.048,1.15 ± 0.077,1.09 ± 0.099
UniProt P05165 and related entries,1.06 ± 0.024,1.16 ± 0.04,1.09 ± 0.025,1.12 ± 0.033,1.15 ± 0.094,1.12 ± 0.084,1.12 ± 0.13,1.09 ± 0.12
ASS1 (UniProt P00966),1.06 ± 0.083,1.08 ± 0.1,1.02 ± 0.027,0.991 ± 0.04,1.02 ± 0.05,0.976 ± 0.029,0.96 ± 0.063,0.94 ± 0.065
UniProt P04921 and related entries,0.828 ± 0.084,0.79 ± 0.094,0.901 ± 0.074,0.887 ± 0.032,0.917 ± 0.04,0.857 ± 0.072,0.744 ± 0.1,0.881 ± 0.031
TTC4 (UniProt O95801),0.938 ± 0.074,0.944 ± 0.068,0.921 ± 0.063,0.9 ± 0.085,0.875 ± 0.072,0.878 ± 0.056,0.91 ± 0.085,0.892 ± 0.074
VPS4B (UniProt O75351),0.961 ± 0.052,0.965 ± 0.056,0.98 ± 0.082,0.949 ± 0.095,0.931 ± 0.092,0.925 ± 0.09,0.919 ± 0.077,0.917 ± 0.091
UniProt O94768,0.999 ± 0.12,1.08 ± 0.057,0.938 ± 0.1,1.07 ± 0.038,0.928 ± 0.089,1.04 ± 0.043,0.975 ± 0.071,0.992 ± 0.043
UniProt O75494 and related entries,1.01 ± 0.049,1.1 ± 0.043,1.17 ± 0.081,1.18 ± 0.095,1.17 ± 0.11,1.16 ± 0.11,1.17 ± 0.11,1.22 ± 0.14
RPLP2 (UniProt P05387),0.957 ± 0.099,0.979 ± 0.062,1.13 ± 0.098,1.06 ± 0.099,1.04 ± 0.037,1.09 ± 0.03,1 ± 0.11,1.2 ± 0.14
UniProt O75475 and related entries,1.01 ± 0.064,1.02 ± 0.064,1.07 ± 0.09,1.08 ± 0.093,1.18 ± 0.098,1.17 ± 0.098,1.26 ± 0.12,1.22 ± 0.12
SMC2 (UniProt O95347),0.985 ± 0.023,1.01 ± 0.022,0.987 ± 0.027,0.983 ± 0.035,0.993 ± 0.041,1.01 ± 0.042,1.01 ± 0.072,0.977 ± 0.046
UniProt P00338 and related entries,0.983 ± 0.024,1.03 ± 0.057,0.901 ± 0.024,0.904 ± 0.065,0.885 ± 0.047,0.878 ± 0.042,0.842 ± 0.028,0.823 ± 0.058
COQ9 (UniProt O75208),0.904 ± 0.073,0.829 ± 0.057,0.97 ± 0.016,0.949 ± 0.065,0.931 ± 0.055,0.904 ± 0.068,0.878 ± 0.13,0.972 ± 0.037
GLUD1 (UniProt P00367),1.01 ± 0.049,1.02 ± 0.047,0.98 ± 0.062,0.974 ± 0.051,0.96 ± 0.074,0.984 ± 0.065,0.968 ± 0.072,0.926 ± 0.032
UniProt O75400 and related entries,1.02 ± 0.05,1.11 ± 0.036,1.23 ± 0.083,1.25 ± 0.076,1.37 ± 0.21,1.52 ± 0.24,1.81 ± 0.37,1.89 ± 0.41
SLU7 (UniProt O95391),0.951 ± 0.062,0.91 ± 0.097,0.965 ± 0.091,0.989 ± 0.074,1.01 ± 0.015,1.06 ± 0.027,1.2 ± 0.054,1.22 ± 0.067
UniProt O75569 and related entries,0.981 ± 0.077,1.03 ± 0.09,0.964 ± 0.046,1.01 ± 0.055,1.05 ± 0.031,1.13 ± 0.039,1.14 ± 0.042,1.22 ± 0.033

# Nothing new here: an excerpt of the list.
Target,NP40-soluble protein abundance (concentration: 0.1mM),NP40-soluble protein abundance (concentration: 0.5mM),NP40-soluble protein abundance (concentration: 1mM),NP40-soluble protein abundance (concentration: 2mM),NP40-soluble protein abundance (concentration: 4mM),NP40-soluble protein abundance (concentration: 6mM),NP40-soluble protein abundance (concentration: 8mM),NP40-soluble protein abundance (concentration: 10mM)
UniProt O95169 and related entries,1.12 ± 0.18,1.02 ± 0.027,1.26 ± 0.2,1.32 ± 0.055,1.22 ± 0.037,1.259 ± 0.0062,1.33 ± 0.24,1.54 ± 0.24
CRYZL1 (UniProt O95825),1.04 ± 0.042,1.02 ± 0.061,0.986 ± 0.039,0.964 ± 0.038,0.964 ± 0.038,0.971 ± 0.032,0.972 ± 0.046,0.925 ± 0.037

# Reference: the supplement of paper PMC6411743
